For at least one compound, name, drawing or mass did not settle the structure.
System: pDC
Assay: Intracellular IFNα and TNFα production by CpG-A-stimulated isolated pDC (flow cytometry)
Assay type: cell-based, human
Details: pDC in IL-3 and inhibitor o/n, then CpG-A 5h, 20 nM RAP, 10µM HPA, 1µM AZD, BAR, 5 µM ERA, 100 or 200 µM SAZ
Source text: PBMC from buffy coats from healthy blood donors were isolated by density gradient centrifugation using SepMate tubes and Lymphoprep (both […] Technologies). pDC were negatively selected from PBMC using the plasmacytoid dendritic cell isolation kit II (Miltenyi Biotec). Buffy coats were kindly provided by the Institute for Transfusion Medicine and Gene Therapy, Medical Center - University of Freiburg (donor consent, anonymized). Skin samples of lupus patients were obtained through the biobank of the SFB829 (Z4 project) with informed consent from all the subjects and ethical approval obtained from the Ethics Committee at the University of Cologne (votes 12-163 and 19-1146). […]
The following fluorochrome-conjugated monoclonal antibodies were used for staining cell surface markers: IL-3Ra (CD123) (Miltenyi Biotec, clone AC145), HLA-DR (BD Bioscience, clone G46-6), CD116 (BD Bioscience, clone hGMCSFR-M1), CD4 (Biolegend, clone A161A1). […] After surface staining, cells were fixed using Fixation/Permeabilization Kit (BD Bioscience) for 20 min at 4°C, and then additionally permeabilized in Perm/Wash solution for 30 min at 4°C, after which cells were incubated with antibodies against intracellular proteins, at previously determined antibody dilutions, for 30 min at RT. […]

In the case of `CCOc1ccccc1-n1c(C(C)N2CCN(C(=O)COc3ccc(Cl)cc3)CC2)nc2ccccc2c1=O` (centres unmarked) [ERA, erastin], the IFNα production (250 nM TOR) was “inhibited” and the TNFα production was “inhibited”.

— EP4008330A1, “COMBINED INHIBITION OF AMINO ACID TRANSPORTERS FOR INHIBITING HUMAN PLASMACYTOID DENDRITIC CELL ACTIVITY DURING AUTOIMMUNITY” (Max-Planck-Gesellschaft zur Förderung der Wissenschaften …, priority 2020, dated 2022)
